# Some of these results come from one statement about several compounds together.
# Test system: stored swine waste
# Assay: fermentation of stored swine waste in anoxic flasks (gas, VFA, L-lactate, pH)
# Assay type: cell-based
# Settings: carvacrol or thymol at 13.3 or 16.75 mM, or combination to equal 16.75 mM
# Method: Swine waste was processed similarly to the method described in Example 1. Fecal waste was randomly collected within 15 min of being excreted from animals fed a finishing diet of 85% corn and 11% soybean meal. Swine urine was collected from catheterized animals. Feces, urine, and distilled water in the ratio 50:35:15 were blended (Waring Inc., New Hartford, Conn.) for 1 min. Four replicate samples were obtained from this slurry and analyzed for various parameters and were considered as time 0. […] Gas volume and composition were analyzed in these flasks (anoxic slurry).
# Head space gas was measured by displacement of a water-lubricated glass piston in a 50 ml syringe [Miller, T. L. et al. (1974), Appl Environ 27:985-987]. A 20-gauge needle with a Leurlok was inserted through the stopper, and a three-way valve was attached to the needle to allow gas volume to be periodically determined. Methane and hydrogen were analyzed as previously described [Varel, V. H. et al. (2000), Curr Microbiol 40:392-397].
# A 15-ml waste sample was collected from each flask. The sample was mixed with 15 ml of 0.5 M H2SO4, centrifuged at 2000×g for 20 min at 4° C., and stored at −20° C. until analyzed [Varel, V. H. et al. (1999), J Anim Sci 77:1162-1168]. […] Data were analyzed as a split-plot in time with the GLM procedure of (SAS).
structure (smiles),measurement,value
Cc1ccc(C(C)C)cc1O [carvacrol],butyrate produced,< 8 mM

# Source: patent publication US6902726B1, “Reduction of odor gases from waste using plant-derived oils” (The United States of America as represented by the …, priority 2001, dated 2005)
